{
  "source": "PubChem BioAssay AID1347076",
  "about": "(National Center for Advancing Translational Sciences (NCATS), 2019)",
  "note": "Out of some 400,000 compounds screened, about 13,000 (3.2%) were called active. Inconclusive means that the source gave no clear call. Such entries were picked first, then a sample of the others. The call rests on the fitted dose curve; in most records, active means well fitted cell-killing curve with a large enough effect; inconclusive means small, poorly fitted or top-dose-only effect, or effect the other way; inactive means flat fitted curve, though single readings scatter. A potency beside an inconclusive call is a rough fit, not a confirmed value. On the % scale 0 is the no-effect control and ±100 the full control effect; potency means the concentration at half of the fitted maximal effect.",
  "data": [
    {"test": "qHTS assay for MDR1-selective chemotherapeutics: Primary screen using the drug-selected MDR subline cells KB-V1; further: nearly all actives have a fitted effect of over 60% in size", "conditions": "KB-V1 MDR cells viability, CellTiter-Glo, 72 h; activity change, negative = cytotoxicity: at 46.1 µM (top of the series)", "in_short": "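Following 72 h at 37 degrees C with compound, KB-V1 cell viability was read by CellTiter-Glo luminescence, medium being phenol-red-free DMEM plus 10% FBS; concentration-response parameters came from normalized, curve-fitted qHTS data.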", "values": [
      {"smiles": "Cc1ccc(C#CC[N+]2(CC#Cc3ccc(C)cc3)CCCCC2)cc1", "activity change, negative = cytotoxicity": "inactive: 0%"},
      {"smiles": "COc1ccc(CN2CCCC2C(=O)Nc2ccc(OC)c(OC)c2)cc1OC", "note": "(configuration not stated)", "Potency": "inconclusive: 16.4 µM [cytotoxic, partial curve]"},
      {"smiles": "COc1cc2c(cc1OC)C(c1ccccc1)N(C(=O)CCl)CC2", "note": "(configuration not stated)", "Potency": "active: 9.2 µM"},
      {"smiles": "C=CCn1c(Cc2cccs2)nnc1SCC(=O)c1ccc2ccccc2c1", "Potency": "inconclusive: 18.4 µM [cytotoxic, single point]"},
      {"smiles": "CN1C(=O)CSc2ccc(NC(=O)N3CCN(c4ccccc4)CC3)cc21", "Potency": "inconclusive: 14.6 µM [cytotoxic, partial curve]"},
      {"smiles": "Cc1ccc(NC(=O)CSc2nc3ccccc3c3nc(CCn4c(C)nc5ccccc54)nn23)cc1F", "Potency": "inconclusive: 29.1 µM [cytotoxic, single point]"},
      {"smiles": "COc1ccccc1C(=O)NCCC(=O)NCCCSc1ccccc1", "Potency": "active: 20.6 µM"},
      {"smiles": "CCOC(=O)c1ccccc1N/C=C/C(=O)c1cccs1", "Potency": "inconclusive: 29.1 µM [cytotoxic, single point]"},
      {"smiles": "O=C(CSc1nc2ccccc2o1)Nc1nccs1", "Potency": "inconclusive: 23.1 µM [rising, single point]"},
      {"smiles": "N#Cc1ccc(NC(=O)Cn2cnc([N+](=O)[O-])c2)cc1", "Potency": "inconclusive: 13 µM [rising, partial curve, poor fit]"},
      {"smiles": "Cc1ccc(C(=O)NCC(c2ccco2)N2CCc3ccccc32)cc1C", "note": "(configuration not stated)", "Potency": "inconclusive: 8.2 µM [cytotoxic, partial curve]"},
      {"smiles": "CCCCn1c(=N)c(S(=O)(=O)c2ccc(Br)cc2)cc2c(=O)n3cccc(C)c3nc21", "activity change, negative = cytotoxicity": "inactive: 0%"},
      {"smiles": "CCC(=O)NCCCNc1nc2c(C)cccc2cc1C#N", "Potency": "inconclusive: 20.6 µM [cytotoxic, single point]"},
      {"smiles": "C=CCNC(=S)NNc1nc2c(c(=O)[nH]1)C1(CCCCC1)Cc1ccccc1-2", "Potency": "inconclusive: 29.1 µM [rising, single point]"},
      {"smiles": "COc1ccc(CN(C)C(=O)c2cccc(NS(=O)(=O)c3ccccc3)c2)cc1F", "Potency": "active: 8.2 µM"},
      {"smiles": "COc1ccc(CNCC(O)(c2ccccc2)c2ccc(Cl)cc2)cc1", "note": "(configuration not stated)", "Potency": "active: 13 µM"},
      {"smiles": "COc1ccc(NC(=O)c2cc(SC)ccc2Cl)cc1", "Potency": "active: 14.6 µM"},
      {"smiles": "COc1ccccc1N1CCN(CC(=O)Nc2c(C)n[nH]c2C)CC1", "Potency": "inconclusive: 18.4 µM [rising, single point]"},
      {"smiles": "Cc1ccc(C)c(OC(=O)C2CSC3(C)CCC(=O)N23)c1C", "note": "(configuration not stated)", "activity change, negative = cytotoxicity": "inactive: -1.12%"},
      {"smiles": "OC(CN1CCCCC1)c1ccc(Br)cc1", "note": "(configuration not stated)", "activity change, negative = cytotoxicity": "inactive: -13.3%"},
      {"smiles": "COc1ccc(N2CCN(C(c3cc4cc(C)ccc4[nH]c3=O)c3nnnn3Cc3ccccc3)CC2)cc1", "note": "(configuration not stated)", "activity change, negative = cytotoxicity": "inactive: -5.78%"},
      {"smiles": "CCOC(=O)C=C(C(=O)OCC)C(=O)OCC", "Potency": "inconclusive: 18.4 µM [rising, single point]"},
      {"smiles": "CN(CC(=O)NC1CC1)S(=O)(=O)c1cc(Cl)ccc1Cl", "Potency": "inconclusive: 29.1 µM [rising, single point]"},
      {"smiles": "COC(=O)[C@@H](Cc1ccccc1)NC(=O)NCCc1c[nH]c2ccccc12", "activity change, negative = cytotoxicity": "inactive: 23.8%"},
      {"smiles": "COc1ccccc1S(=O)(=O)Cc1ccc(C(=O)N2CCN(c3ccc(C)cc3)C(C)C2)o1", "note": "(configuration not stated)", "Potency": "inconclusive: 29.1 µM [cytotoxic, single point]"},
      {"smiles": "CCOc1ccc(S(=O)(=O)Nc2cc(OC)c(OC)cc2C(=O)O)cc1", "activity change, negative = cytotoxicity": "inactive: 16.2%"},
      {"smiles": "Cc1nn(C)c(C)c1NC(=O)CCl", "activity change, negative = cytotoxicity": "inactive: 0.162%"},
      {"smiles": "CCN(CC)CCN1C(=O)C(=O)/C(=C(/O)c2ccncc2)C1c1ccccc1", "note": "(configuration not stated)", "Potency": "inconclusive: 29.1 µM [rising, single point]"},
      {"smiles": "S=C(Nc1ccccc1Cl)N1CCCC1", "activity change, negative = cytotoxicity": "inactive: 0%"},
      {"smiles": "O=C(CCSc1ccccc1)NC(=O)COC(=O)c1ccc(OC(F)F)cc1", "Potency": "inconclusive: 18.4 µM [rising, single point]"},
      {"smiles": "CCOc1ccc(NS(=O)(=O)c2ccc(C(=O)NCC(c3ccco3)N(C)C)cc2)cc1", "note": "(configuration not stated)", "Potency": "inconclusive: 20.6 µM [cytotoxic, single point]"},
      {"smiles": "Cc1cc(C(=O)N2CC=C(c3ccccc3)CC2)c2ccccc2n1", "Potency": "active: 1.46 µM"},
      {"smiles": "COc1ccc(N2CCN(C(=O)CCc3ccc(S(=O)(=O)NC(C)C)cc3)CC2)cc1", "Potency": "inconclusive: 29.1 µM [cytotoxic, single point]"},
      {"smiles": "Cc1ccc2nc(-c3ccccn3)c(Nc3ccc(F)cc3)n2c1", "Potency": "inconclusive: 3.66 µM [cytotoxic, partial curve, poor fit]"},
      {"smiles": "CC1=C(C(=O)Nc2ccc(Cl)cc2)C(C(C)C)n2nc(SCc3cccc(C)c3)nc2N1", "note": "(configuration not stated)", "Potency": "inconclusive: 23.1 µM [rising, single point]"},
      {"smiles": "CC(C)Oc1ccc(C(CC(=O)NCCCN(C)C)c2ccc(F)cc2)cc1", "note": "(configuration not stated)", "activity change, negative = cytotoxicity": "inactive: -20.4%"},
      {"smiles": "Cc1cc(/C=C2\\C(=N)N3N=C(S(C)(=O)=O)SC3=NC2=O)c(C)n1Cc1ccccc1", "activity change, negative = cytotoxicity": "inactive: 1.12%"},
      {"smiles": "O=C(Nc1ccccc1N1CCCCC1)c1cccc([N+](=O)[O-])c1", "Potency": "inconclusive: 32.6 µM [cytotoxic, single point]"},
      {"smiles": "COC(=O)c1sccc1NC(=O)CN1CCN(c2ccc(F)cc2)CC1", "Potency": "inconclusive: 23.1 µM [cytotoxic, single point]"},
      {"smiles": "Cc1coc(C)c1C(=O)CC1(O)C(=O)N(CCc2ccccc2)c2ccccc21", "note": "(configuration not stated)", "Potency": "inconclusive: 9.2 µM [cytotoxic, partial curve]"},
      {"smiles": "CC(C)c1ccc(CNCCSc2nnnn2C)cc1", "activity change, negative = cytotoxicity": "inactive: -38.5%"},
      {"smiles": "N#C/C(=C\\c1ccc(-c2cccc([N+](=O)[O-])c2)o1)C(=O)NCCN1CCOCC1", "activity change, negative = cytotoxicity": "inactive: -8.35%"},
      {"smiles": "Cc1ccc(NC(=O)CN2CCN(c3ccccn3)CC2)cc1S(=O)(=O)N(C)C", "Potency": "inconclusive: 5.8 µM [cytotoxic, partial curve, poor fit]"},
      {"smiles": "CCCCS(=O)(=O)Nc1ccc2cn[nH]c2c1", "activity change, negative = cytotoxicity": "inactive: -10.8%"},
      {"smiles": "COc1ccc(C(=O)NCC(c2ccco2)N2CCc3ccccc32)cc1", "note": "(configuration not stated)", "Potency": "active: 7.31 µM"},
      {"smiles": "CCOc1ccc(Cl)cc1CSc1n[nH]c(CC)n1", "Potency": "inconclusive: 20.6 µM [cytotoxic, single point]"},
      {"smiles": "Cc1ccc(NC(=O)CSc2nc3c(c(=O)[nH]2)CN(Cc2ccc4c(c2)OCO4)CC3)cc1C", "Potency": "inconclusive: 10.3 µM [rising, partial curve]"}
    ]}
  ]
}
